The target of this experiment is T1, YAF9A, 3XFLAG-tagged (pYAF9A::YAF9A::3XFLAG in yaf9a-1, ins1) (Arabidopsis) (UniProt Q9FH40).
T1 sequence: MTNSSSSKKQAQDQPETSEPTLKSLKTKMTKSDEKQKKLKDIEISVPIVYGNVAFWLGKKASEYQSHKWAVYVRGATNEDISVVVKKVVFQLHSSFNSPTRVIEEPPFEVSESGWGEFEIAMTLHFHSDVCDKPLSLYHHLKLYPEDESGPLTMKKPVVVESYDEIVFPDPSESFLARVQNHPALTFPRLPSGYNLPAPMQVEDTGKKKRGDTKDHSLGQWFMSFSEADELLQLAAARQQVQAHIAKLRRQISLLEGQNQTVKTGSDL
Nature of the experiment: affinity purification with mass spectrometry.

No constants are given. Whether binding was seen depends on the method and setting. In cells and extracts the contact can be indirect. Here binding means that the protein was enriched with, or labelled near, the bait; the list need not be complete. No binding means not detected with the bait. Where a sequence is shown, tags or fusion partners need not be part of it.

On to “YAF9B (endogenous, in pYAF9A:YAF9A:3XFLAG/yaf9a-1 seedlings after γ-IR) (Arabidopsis (endogenous in seedlings))”, for which the binding result is on record as “no binding”.

The values are drawn from doi:10.1101/2025.10.11.681831.
